From PubChem BioAssay AID1567 (National Center for Advancing Translational Sciences (NCATS), 2009)
Inconclusive means that the source gave no clear call. Such entries were picked first, then a sample of the others. A potency beside an inconclusive call is a rough fit, not a confirmed value. Calls of active or inactive are those of the source. Calls come from the whole dose curve; as a rule, active = well fitted inhibition curve with a large enough effect; inconclusive = small, poorly fitted or top-dose-only effect, or effect the other way; inactive = no such curve, though single readings can be large or run the other way.

Amino acid sequences for entries named in this document (tags omitted). A change or cut given only in a name is not applied to a line headed by its entry.
UniProt P10828: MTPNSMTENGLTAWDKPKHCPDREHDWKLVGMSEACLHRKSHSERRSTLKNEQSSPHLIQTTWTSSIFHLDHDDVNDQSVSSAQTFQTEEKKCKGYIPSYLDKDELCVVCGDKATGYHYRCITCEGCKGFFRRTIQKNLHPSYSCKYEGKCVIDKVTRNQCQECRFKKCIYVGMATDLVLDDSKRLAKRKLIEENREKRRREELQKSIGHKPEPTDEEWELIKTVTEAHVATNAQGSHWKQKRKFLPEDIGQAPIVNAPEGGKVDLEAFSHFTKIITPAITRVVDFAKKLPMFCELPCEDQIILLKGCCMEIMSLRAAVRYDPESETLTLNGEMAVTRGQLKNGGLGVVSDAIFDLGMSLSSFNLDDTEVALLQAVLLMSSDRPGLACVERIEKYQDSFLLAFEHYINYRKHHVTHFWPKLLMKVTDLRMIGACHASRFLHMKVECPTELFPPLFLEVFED

What follows are compounds tested against Thyroid hormone receptor beta (Homo sapiens) (UniProt P10828) (assay: Cell-based Gene Reporter Secondary Assay to Characterize qHTS Inhibitors of the Interaction of Thyroid Hormone Receptor and Steroid Receptor Coregulator 2). Conditions: WRO cells TRbeta TRE-luciferase, T3-stimulated, 16 h.
Text: NIH Molecular Libraries Probe Production Network [MLPCN] NIH Chemical Genomics Center [NCGC] MLPCN Grant: DK058080 Assay Provider: R. Kip Guy, St. Jude Children's Research Hospital NCGC Assay Overview: Thyroid receptor (TR) regulates many homeostatic processes including basal metabolism, cardiovascular function, body weight, and lipid trafficking. TR modulators are potential therapeutics for obesity and hyperlipidemias but current thyroid analogs have undesirable side effects, particularly cardiac stimulation. This secondary assay characterized selected actives identified in the qHTS for Inhibitors of the Interaction of Thyroid Hormone Receptor and Steroid Receptor Coregulator 2. The human follicular thyroid carcinoma cell line WRO (kindly provided by Dr. M. D. Ringel) stably expresses TRbeta and a luciferase reporter gene fused to TR response element. The addition of T3 ligand elevates expression of the TRE luciferase reporter. This assay measures the transcriptional activity of compounds.
NCGC Assay Protocol Summary: Cells were maintained in RPMI 1640 culture medium supplemented with 10% heat-inactivated FBS, 0.33 mg/ml hygromycin, 0.33 mg/ml geneticin, 50 units/ml penicillin, 50 ug/ml streptomycin. Cells were harvested and resuspended at 330,000 cells/ml in assay medium (50% DMEM 50% F-12 medium without Phenol-Red (Cellgro #16-405-CV), L-glutamine, 10% heat inactivated and charcoal treated FBS, 100 uM non-essential amino acid, 50 units/ml penicillin, 50 ug/ml streptomycin). Cells were dispensed at 10,000 cells/30 ul/well into 384 well plates (Corning 3917) and incubated 12 h at 37 C and 5% CO2. Compounds and T3 (100nM final concentration) were added using a pin tool and plates were incubated 16 h incubation at 37 C and 5% CO2. Following incubation, plates were equilibrated at ambient temperature for 30 min, 30 ul of Bright-Glo (Promega) was added and luminescence was detected by an EnVision (PerkinElmer).

SMILES | Potency
O=C(O)CC1OCC=C2CN3CCC45C6=CC(=O)C(=O)C([N+](=O)[O-])=C6NC4C1C2CC35 (stereo not given) | inconclusive: 12.6 µM [inhibitor, partial curve]
CN1CC[C@@]2(C)c3cc(O)ccc3N(C)C2O1 (stereo not given in full) | inconclusive: 25.1 µM [inhibitor, full curve, poor fit]
COP(=S)(OC)Oc1ccc([N+](=O)[O-])cc1 | active: 3.98 µM
Cc1[nH]n(-c2ccccc2)c(=O)c1C(c1ccc([N+](=O)[O-])cc1)c1c(C)[nH]n(-c2ccccc2)c1=O | inconclusive: 3.98 µM [inhibitor, full curve, poor fit]
CC(=O)NC1N=C(C)N(c2ccccc2)C1=O (stereo not given) | inconclusive: 0.0355 µM [activator, full curve, poor fit]
